Some entries share one result that the patent states for a list of compounds.
Tested on: P. berghei ANKA strain
Assay: Divided 3x3 mg/kg and 3x1 mg/kg po doses in infected mice
Format: in vivo, Plasmodium berghei
Conditions: 1 mg/kg po (SSV) on days 1, 2, 3 post-infection; parasitemia reduction on day 4
Experimental: Moro NMRI male mice (Fu Albino specific pathogen free) weighing 18±2 g were infected intravenously (i.v.) with 2×10^7 P. berghei ANKA strain-infected erythrocytes from donor mice on day 0 of the experiment. From donor mice with circa 30% parasitemia, heparinized blood was taken and diluted in physiological saline to 10^8 parasitized erythrocytes per ml. An aliquot (0.2 ml) of this suspension was injected i.v. into experimental and control groups of mice. […] Throughout the experiments, mice were kept in groups of three or five animals in Makrolon type II cages in an air-conditioned animal room at 22 to 23° C.
They were administered per os (p.o.) in a total volume of 0.01 ml per gram of mouse. The activity of the compound was determined by a variety of methods outlined in subsequent sections. Survival time was also recorded, and survival to day 30 post-infection was considered to be a cure.
The second experiment consists of administration of divided 3×3 mg/kg and 3×1 mg/kg po doses administered on days 1, 2, and 3 post-infection. On day 4 post-infection, blood smears of all animals were prepared and stained with Giemsa. […] Compounds were administered orally in the SSV vehicle.

Compound	Activity at the 3×1 mg/kg dose
O=C(NC[C@H]1CC[C@]2(CC1)OO[C@]1(O2)C2CC3CC(C2)CC1C3)N1CCNCC1 [OZ329]	greater than 99%
NCCC(=O)NC[C@H]1CC[C@]2(CC1)OO[C@]1(O2)C2CC3CC(C2)CC1C3 [OZ336]	greater than 99%

Reference: patent US6825230B2, “Spiro and dispiro 1,2,4-trixolane antimalarials” (Medicines for Malaria Venture MMV, priority 2002, dated 2004)
